Measured values taken from PubChem BioAssay AID2417 (National Center for Advancing Translational Sciences (NCATS), 2010).
Out of some 140,000 compounds screened, about 4,300 (3.1%) were called active. Inconclusive results, whose numbers are uncertain, are shown with a selection of clear calls.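 How the source made its calls: active means readout at or below -70, meaning at least 70% loss of cells showing the perinucleolar compartment, a nuclear body marking cancer cells; inconclusive means readout between -30 and a set limit; inactive means the rest.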

Assay: High Content Assay for Compounds that inhibit the Assembly of the Perinucleolar Compartment;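 further: plate controls were DMSO wells for no effect and camptothecin positive control wells for full effect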
Conditions: PC3M PTB-GFP, PNC prevalence imaging, 16 h; at 10 µM; stronger effect = lower value
Summary of the method: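 PC3M cells stably expressing PTB-GFP, 750–1000 cells/well, treated 16 h at 37 °C with compound (23 nl of library stock), in duplicate. After paraformaldehyde fixation and Hoechst stain, imaged at 20x; PNC prevalence scored by image analysis.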

Compound	activity change (PNC), negative = inhibition
CC(C)C(=O)N=C1NC(=O)CS1	inconclusive: -48.7%
Clc1ccc(CNc2nnnn2-c2ccccc2)c(Cl)c1	inactive: 32.2%
N/C(=N\OC(=O)c1ccc(F)cc1)c1nonc1N	inconclusive: -50.6%
COc1ccc(-n2cnnc2SCC(=O)NC2CCCc3ccccc32)cc1 (stereo unspecified)	inconclusive: -36.4%
Cc1cccc2cc(COC(=O)c3ccccn3)c(=O)[nH]c12	inconclusive: -38.2%
Cn1c(=O)[nH]c(=O)c2c1nc(N1CCN(Cc3ccccc3)CC1)n2CCSc1ncccn1	inconclusive: -46.1%
O=c1[nH]ncc(N/N=C/c2ccccc2)c1Cl	inconclusive: -36.9%
Cc1ccc(N(NC(=O)C(C)(C)O)C(=O)c2ccccc2)cc1C	inconclusive: -39.7%
COCCCNC(=O)CC(NS(=O)(=O)c1ccc(F)cc1)c1ccc(OC)cc1 (stereo unspecified)	inconclusive: -46.6%
COc1cc(NC(=O)CCc2c(C)nc3nc(C)nn3c2C)cc(OC)c1	inconclusive: -59.5%
Cc1cc(CN(C)C)c(O)c(C2(C)CCCCC2)c1	inconclusive: -34.4%
CCOc1ccc(N2C(=O)/C(=C/c3cc(OC)c(OC)c(OC)c3)N(CC(=O)OC)C2=S)cc1	inactive: 7.74%
CC1CCCC(C)N1c1nnc(NC(=O)Cn2c(=O)oc3ccccc32)s1 (stereo unspecified)	inactive: 64.6%
O=c1c2cc(F)ccc2[nH]c(=S)n1CCCN1CCOCC1	inconclusive: -41.4%
COc1cc(CC(=O)N2CCc3ccccc32)cc(OC)c1OC	inconclusive: -32.2%
Cc1cccc(NC(=O)CSc2ccc(-c3ccc4c(c3)OCO4)nn2)c1C	inconclusive: -32.8%
Cc1c(Cl)cccc1NC(=O)CSc1nnc(C)n1-c1ccccc1	inconclusive: -30.1%
O=C(Nc1cccc2c1CCCC2)c1ccco1	inconclusive: -50%
Cc1cc(C)c2c(n1)sc1c(O)cc(=O)[nH]c12	inconclusive: -54.3%

Compound	activity change (PNC), negative = inhibition
CC(C)c1ccccc1NC(=O)COc1ccc2c(=O)c(Oc3ccc4ccccc4c3)coc2c1	inconclusive: -52.3%
CCc1ccc(OCC(=O)N/N=C/c2cc([N+](=O)[O-])ccc2N2CCOCC2)cc1	inconclusive: -32%
Cc1cc(NC(=O)CSc2nc(-c3ccccc3)c(C#N)c(=O)[nH]2)no1	inconclusive: -41.4%
CCOc1ccc(S(=O)(=O)Nc2cc(OC)ccc2OC)cc1	inconclusive: -69.4%
CN1C(=O)CC(N2CCN(CCN=CC3=C(O)CC(C)(C)CC3=O)CC2)C1=O (stereo unspecified)	inconclusive: -34.1%
CC1=NN(c2ccccc2)C(=O)/C1=C\c1cn(CCC#N)nc1-c1ccc(Cl)cc1	inactive: 13.3%
COc1ccc(C2=CC(c3ccc(F)cc3)n3nnnc3N2)cc1 (stereo unspecified)	inactive: -5.59%
O=S(=O)(c1ccc(Cl)s1)N1CCN(c2ncccn2)CC1	inactive: -26.4%
Nc1cc(C(=O)OCC(=O)NCc2ccc(F)cc2)ccc1Cl	inconclusive: -72.1%
CC1CCN(CCC(=O)N2CCCc3c2c(=O)oc2ccc(O)cc32)CC1	inactive: -7.77%
N#C/C(=C/c1cn(-c2ccccc2)nc1-c1cccc(OCc2ccc(F)cc2)c1)C(=O)NCCCn1ccnc1	inconclusive: -50.4%
Cc1nc(SCc2c(F)cccc2Cl)c2c(=O)n(C)c(=O)n(C)c2n1	inconclusive: -70.9%
Cc1c(S(=O)(=O)Nc2cc(Cl)ccc2Cl)c(=O)n(C)c(=O)n1C	inconclusive: -60.2%
Cc1nc2ccccc2c(=O)n1/N=C/c1c(O)ccc2oc3c(c12)CCCC3	inconclusive: -30.8%
COc1cccc(NC(=O)CCN2CCN(c3ccccc3F)CC2)c1	inconclusive: -39.6%
Cc1cccc(N2CCN(Cc3c(C)n(C)n(-c4ccccc4)c3=O)CC2)c1C	inconclusive: -32.8%
Cc1nc(-c2ccccn2)sc1C(=O)Nc1ccc(F)cc1F	inconclusive: -31.7%
O=c1[nH]c(-c2cccs2)nc2ccccc12	inconclusive: -48.5%
COCCN1C(=O)C(=O)/C(=C(/O)c2ccc(OC(C)C)cc2)C1c1cccnc1 (stereo unspecified)	inconclusive: -68.4%

Compound	activity change (PNC), negative = inhibition
O=C1CC(c2cccc(Cl)c2)CC(O)=C1C=NC1CCCC1 (stereo unspecified)	inactive: -29.4%
CC1Cc2nc(SCC(=O)NCc3ccco3)n(Cc3ccccc3)c(=O)c2S1 (stereo unspecified)	inconclusive: -68.5%
Nc1c(Br)cc2oc(-c3ccccc3)nc2c1Br	inconclusive: -54.9%
O=C(NC1CCCC1)C(c1ccccc1)N(C(=O)c1ccno1)c1ccccc1 (stereo unspecified)	inconclusive: -66.3%
COC(=O)c1sc(NC(=O)C2CCCCC2C(=O)O)c(C(=O)OC)c1C (stereo unspecified)	inconclusive: -33.2%
COc1ccc2c(c1)[nH]c1c(Cl)ncnc12	inactive: 29.2%
CCOc1ccccc1/C=N/NC(=O)CNC(=O)c1ccc(S(=O)(=O)N2CCOCC2)cc1	inconclusive: -47.8%
CCCCNC(=O)c1cc2nc3c(c(C(F)(F)F)n2n1)CCc1ccccc1-3	inconclusive: -49.8%
CCc1ccccc1S(=O)(=O)Cc1ccc(C(=O)NCC2CCCO2)o1 (stereo unspecified)	inconclusive: -57.4%
CC(CNC(=O)C(=O)NC(C)CCc1ccccc1)Cc1ccccc1 (stereo unspecified)	inactive: 34%
O=S(=O)(Cc1nc2ccccc2s1)c1ccccc1	inconclusive: -34.5%
COc1cc(C(=O)NNC2=NC(C)(C)Cc3cc(C)c(C)cc32)cc(OC)c1OC	inconclusive: -52.3%
CCOC(=O)C1=C(C)Nc2nc(SCC(=O)OC)nn2C1c1cc(F)cc(F)c1 (stereo unspecified)	inconclusive: -59.7%
O=C(Cn1cnc2ccccc21)Nc1cc(C(F)(F)F)ccc1N1CCOCC1	inconclusive: -37%
Cc1onc(-c2c(F)cccc2Cl)c1C(=O)Nc1ccc(S(=O)(=O)Nc2ncccn2)cc1	active: -123%
Cc1nc(-c2ccccn2)sc1C(=O)Nc1ccc(Cl)c(Cl)c1	inconclusive: -60.6%
Cc1ccc(-c2nnc(SCC(=O)NC(=O)Nc3ccc(C)cc3C)n2N)cc1	inconclusive: -51.4%
CN(CCc1ccccn1)S(=O)(=O)c1ccccc1F	inactive: 36.7%

Rewritten in CSV form: entries from further up
Compound,"activity change (PNC), negative = inhibition"
Nc1c(Br)cc2oc(-c3ccccc3)nc2c1Br,inconclusive: -54.9%
O=C(NC1CCCC1)C(c1ccccc1)N(C(=O)c1ccno1)c1ccccc1 (stereo unspecified),inconclusive: -66.3%
COC(=O)c1sc(NC(=O)C2CCCCC2C(=O)O)c(C(=O)OC)c1C (stereo unspecified),inconclusive: -33.2%
